Laboratory results from the supplement of paper PMC10849652.
This is one part of the list.

The chains behind the UniProt entries cited, without tags or fusion partners. Where a name states a change or a piece, a line headed by the entry shows the natural chain unless it says otherwise.
UniProt Q9NRF9: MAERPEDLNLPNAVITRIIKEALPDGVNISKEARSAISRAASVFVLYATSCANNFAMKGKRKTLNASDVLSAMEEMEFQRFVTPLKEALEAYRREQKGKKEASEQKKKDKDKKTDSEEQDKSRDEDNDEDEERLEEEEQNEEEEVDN
UniProt Q9HBL7: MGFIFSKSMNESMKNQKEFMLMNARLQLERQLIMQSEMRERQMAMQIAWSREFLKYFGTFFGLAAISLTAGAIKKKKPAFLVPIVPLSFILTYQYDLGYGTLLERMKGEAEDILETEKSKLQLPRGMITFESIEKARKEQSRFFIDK
UniProt Q7Z4H8: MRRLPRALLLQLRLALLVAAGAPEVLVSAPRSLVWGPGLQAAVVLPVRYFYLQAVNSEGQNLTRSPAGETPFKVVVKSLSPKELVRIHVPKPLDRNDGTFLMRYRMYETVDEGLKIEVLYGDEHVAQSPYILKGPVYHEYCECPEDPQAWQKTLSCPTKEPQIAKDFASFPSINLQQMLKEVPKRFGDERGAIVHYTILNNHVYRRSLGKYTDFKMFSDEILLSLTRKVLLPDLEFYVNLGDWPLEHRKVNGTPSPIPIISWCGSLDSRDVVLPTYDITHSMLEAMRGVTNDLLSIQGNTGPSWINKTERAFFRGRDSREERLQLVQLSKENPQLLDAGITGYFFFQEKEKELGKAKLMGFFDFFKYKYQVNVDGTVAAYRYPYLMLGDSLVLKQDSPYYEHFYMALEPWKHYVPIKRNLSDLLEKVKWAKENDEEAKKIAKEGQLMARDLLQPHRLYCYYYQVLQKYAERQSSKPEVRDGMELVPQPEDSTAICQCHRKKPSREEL
UniProt Q9Y2Y1: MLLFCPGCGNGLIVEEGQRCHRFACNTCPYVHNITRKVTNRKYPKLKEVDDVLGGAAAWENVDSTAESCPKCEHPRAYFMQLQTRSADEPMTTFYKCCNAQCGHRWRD
UniProt P14859: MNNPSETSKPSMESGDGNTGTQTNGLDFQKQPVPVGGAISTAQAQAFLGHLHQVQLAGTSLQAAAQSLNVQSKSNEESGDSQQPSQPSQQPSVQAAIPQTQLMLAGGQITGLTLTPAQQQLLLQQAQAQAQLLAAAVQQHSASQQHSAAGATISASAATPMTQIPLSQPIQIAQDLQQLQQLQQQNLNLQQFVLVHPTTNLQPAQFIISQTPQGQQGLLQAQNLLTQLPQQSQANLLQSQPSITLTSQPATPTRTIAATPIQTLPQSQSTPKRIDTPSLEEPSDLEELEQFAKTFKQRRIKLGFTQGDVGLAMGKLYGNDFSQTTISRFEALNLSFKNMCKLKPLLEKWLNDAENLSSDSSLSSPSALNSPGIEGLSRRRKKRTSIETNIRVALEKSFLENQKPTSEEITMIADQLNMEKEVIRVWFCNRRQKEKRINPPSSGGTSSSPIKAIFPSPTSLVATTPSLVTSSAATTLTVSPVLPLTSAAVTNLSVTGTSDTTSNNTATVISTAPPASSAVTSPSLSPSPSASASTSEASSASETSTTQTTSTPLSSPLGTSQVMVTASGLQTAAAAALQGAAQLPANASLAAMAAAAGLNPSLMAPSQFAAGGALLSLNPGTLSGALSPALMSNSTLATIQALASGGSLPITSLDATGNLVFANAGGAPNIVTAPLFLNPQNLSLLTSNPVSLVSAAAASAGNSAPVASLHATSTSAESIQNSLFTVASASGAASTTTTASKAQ
UniProt Q92871: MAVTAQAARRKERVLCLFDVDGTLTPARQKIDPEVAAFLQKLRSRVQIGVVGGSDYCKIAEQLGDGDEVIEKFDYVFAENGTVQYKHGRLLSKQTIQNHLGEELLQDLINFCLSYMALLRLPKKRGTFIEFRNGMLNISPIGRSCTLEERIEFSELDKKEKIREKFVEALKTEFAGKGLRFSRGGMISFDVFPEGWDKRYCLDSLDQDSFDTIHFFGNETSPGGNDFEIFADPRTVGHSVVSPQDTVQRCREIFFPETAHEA
UniProt Q9BUI4: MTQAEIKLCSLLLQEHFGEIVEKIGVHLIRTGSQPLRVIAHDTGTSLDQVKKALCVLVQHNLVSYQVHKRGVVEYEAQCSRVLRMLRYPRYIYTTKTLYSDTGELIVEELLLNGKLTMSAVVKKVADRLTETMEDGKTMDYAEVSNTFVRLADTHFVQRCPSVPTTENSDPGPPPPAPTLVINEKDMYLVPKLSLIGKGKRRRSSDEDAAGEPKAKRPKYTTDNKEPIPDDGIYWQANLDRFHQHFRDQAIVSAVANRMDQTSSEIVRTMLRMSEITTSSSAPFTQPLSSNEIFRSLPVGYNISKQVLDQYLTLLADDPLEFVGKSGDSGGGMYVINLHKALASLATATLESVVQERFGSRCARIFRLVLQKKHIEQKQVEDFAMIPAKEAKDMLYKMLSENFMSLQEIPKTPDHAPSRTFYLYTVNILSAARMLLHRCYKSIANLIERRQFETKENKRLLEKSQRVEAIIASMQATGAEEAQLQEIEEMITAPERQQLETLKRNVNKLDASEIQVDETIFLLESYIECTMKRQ
UniProt Q8TF01: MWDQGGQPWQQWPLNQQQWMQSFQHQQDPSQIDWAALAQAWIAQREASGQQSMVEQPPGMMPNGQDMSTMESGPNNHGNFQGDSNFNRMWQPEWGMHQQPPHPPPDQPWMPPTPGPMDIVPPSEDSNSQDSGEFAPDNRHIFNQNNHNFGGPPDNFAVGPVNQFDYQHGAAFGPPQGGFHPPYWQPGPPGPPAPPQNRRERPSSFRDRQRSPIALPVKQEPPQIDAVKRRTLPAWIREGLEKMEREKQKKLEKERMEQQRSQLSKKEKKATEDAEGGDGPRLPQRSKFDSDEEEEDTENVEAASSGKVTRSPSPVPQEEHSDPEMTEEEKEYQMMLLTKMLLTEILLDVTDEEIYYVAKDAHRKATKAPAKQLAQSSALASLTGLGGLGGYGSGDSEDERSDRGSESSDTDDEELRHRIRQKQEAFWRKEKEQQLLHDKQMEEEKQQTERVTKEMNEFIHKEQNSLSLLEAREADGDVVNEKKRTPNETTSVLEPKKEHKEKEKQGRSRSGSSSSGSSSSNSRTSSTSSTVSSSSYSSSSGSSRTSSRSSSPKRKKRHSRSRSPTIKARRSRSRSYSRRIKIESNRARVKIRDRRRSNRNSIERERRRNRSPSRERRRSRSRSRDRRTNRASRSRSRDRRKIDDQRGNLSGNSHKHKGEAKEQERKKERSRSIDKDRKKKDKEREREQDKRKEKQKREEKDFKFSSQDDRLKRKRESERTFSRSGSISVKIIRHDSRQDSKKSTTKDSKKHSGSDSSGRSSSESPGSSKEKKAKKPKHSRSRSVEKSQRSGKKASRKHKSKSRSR
UniProt Q99575: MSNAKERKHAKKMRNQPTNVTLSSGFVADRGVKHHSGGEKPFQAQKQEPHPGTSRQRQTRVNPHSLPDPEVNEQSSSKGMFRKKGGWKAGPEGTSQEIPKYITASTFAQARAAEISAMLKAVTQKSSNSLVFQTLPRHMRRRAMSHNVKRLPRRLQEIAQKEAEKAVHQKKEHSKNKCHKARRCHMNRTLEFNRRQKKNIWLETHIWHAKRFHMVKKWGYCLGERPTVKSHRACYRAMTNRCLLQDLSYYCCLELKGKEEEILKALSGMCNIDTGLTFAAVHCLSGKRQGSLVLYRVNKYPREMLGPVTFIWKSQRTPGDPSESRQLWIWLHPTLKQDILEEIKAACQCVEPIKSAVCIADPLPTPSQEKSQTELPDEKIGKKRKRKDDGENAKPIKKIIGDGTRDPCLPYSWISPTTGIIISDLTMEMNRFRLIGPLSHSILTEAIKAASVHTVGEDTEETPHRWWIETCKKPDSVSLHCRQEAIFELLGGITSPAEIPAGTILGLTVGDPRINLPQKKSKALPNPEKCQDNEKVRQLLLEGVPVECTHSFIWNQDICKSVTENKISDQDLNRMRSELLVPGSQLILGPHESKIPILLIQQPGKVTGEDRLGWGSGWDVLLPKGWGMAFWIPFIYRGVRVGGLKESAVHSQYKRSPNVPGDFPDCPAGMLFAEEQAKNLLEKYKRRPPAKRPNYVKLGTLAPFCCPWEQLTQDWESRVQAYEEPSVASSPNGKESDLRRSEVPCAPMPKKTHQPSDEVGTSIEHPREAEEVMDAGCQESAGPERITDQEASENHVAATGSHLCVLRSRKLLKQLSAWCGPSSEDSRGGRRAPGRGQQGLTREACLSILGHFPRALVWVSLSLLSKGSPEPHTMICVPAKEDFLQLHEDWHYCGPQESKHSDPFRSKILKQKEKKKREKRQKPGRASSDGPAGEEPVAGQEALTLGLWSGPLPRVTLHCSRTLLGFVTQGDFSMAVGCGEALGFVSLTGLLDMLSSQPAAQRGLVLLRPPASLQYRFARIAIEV
UniProt Q9H1D9: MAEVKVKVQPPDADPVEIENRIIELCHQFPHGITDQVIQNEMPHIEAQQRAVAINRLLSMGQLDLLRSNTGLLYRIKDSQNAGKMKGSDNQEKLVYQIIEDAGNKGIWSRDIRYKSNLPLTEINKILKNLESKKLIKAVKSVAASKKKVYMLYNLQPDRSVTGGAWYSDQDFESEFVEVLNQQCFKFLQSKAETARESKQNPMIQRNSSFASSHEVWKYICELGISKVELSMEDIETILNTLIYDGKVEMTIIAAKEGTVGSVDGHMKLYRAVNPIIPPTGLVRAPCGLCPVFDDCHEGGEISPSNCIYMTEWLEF
UniProt Q9Y244: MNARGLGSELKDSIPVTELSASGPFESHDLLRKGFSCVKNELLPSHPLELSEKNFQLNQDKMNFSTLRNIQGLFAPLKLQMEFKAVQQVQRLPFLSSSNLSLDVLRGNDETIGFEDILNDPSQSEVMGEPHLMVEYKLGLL
UniProt Q9NZ53: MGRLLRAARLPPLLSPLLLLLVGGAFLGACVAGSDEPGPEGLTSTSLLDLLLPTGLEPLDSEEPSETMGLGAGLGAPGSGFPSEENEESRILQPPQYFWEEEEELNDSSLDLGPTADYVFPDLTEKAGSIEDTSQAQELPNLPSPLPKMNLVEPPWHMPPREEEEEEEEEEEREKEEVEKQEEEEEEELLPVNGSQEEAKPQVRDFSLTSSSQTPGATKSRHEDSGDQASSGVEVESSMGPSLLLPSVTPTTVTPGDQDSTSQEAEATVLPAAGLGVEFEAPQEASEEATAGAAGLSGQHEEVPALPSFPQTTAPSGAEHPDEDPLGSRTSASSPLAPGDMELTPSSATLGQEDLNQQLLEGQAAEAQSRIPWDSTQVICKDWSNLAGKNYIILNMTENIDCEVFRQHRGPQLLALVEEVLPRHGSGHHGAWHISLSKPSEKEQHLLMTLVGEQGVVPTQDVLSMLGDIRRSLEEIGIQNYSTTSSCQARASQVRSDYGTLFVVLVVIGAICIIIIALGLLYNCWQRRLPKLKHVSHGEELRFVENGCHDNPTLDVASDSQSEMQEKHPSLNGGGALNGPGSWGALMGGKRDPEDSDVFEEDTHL
UniProt Q96HA1, whole entry, looked up: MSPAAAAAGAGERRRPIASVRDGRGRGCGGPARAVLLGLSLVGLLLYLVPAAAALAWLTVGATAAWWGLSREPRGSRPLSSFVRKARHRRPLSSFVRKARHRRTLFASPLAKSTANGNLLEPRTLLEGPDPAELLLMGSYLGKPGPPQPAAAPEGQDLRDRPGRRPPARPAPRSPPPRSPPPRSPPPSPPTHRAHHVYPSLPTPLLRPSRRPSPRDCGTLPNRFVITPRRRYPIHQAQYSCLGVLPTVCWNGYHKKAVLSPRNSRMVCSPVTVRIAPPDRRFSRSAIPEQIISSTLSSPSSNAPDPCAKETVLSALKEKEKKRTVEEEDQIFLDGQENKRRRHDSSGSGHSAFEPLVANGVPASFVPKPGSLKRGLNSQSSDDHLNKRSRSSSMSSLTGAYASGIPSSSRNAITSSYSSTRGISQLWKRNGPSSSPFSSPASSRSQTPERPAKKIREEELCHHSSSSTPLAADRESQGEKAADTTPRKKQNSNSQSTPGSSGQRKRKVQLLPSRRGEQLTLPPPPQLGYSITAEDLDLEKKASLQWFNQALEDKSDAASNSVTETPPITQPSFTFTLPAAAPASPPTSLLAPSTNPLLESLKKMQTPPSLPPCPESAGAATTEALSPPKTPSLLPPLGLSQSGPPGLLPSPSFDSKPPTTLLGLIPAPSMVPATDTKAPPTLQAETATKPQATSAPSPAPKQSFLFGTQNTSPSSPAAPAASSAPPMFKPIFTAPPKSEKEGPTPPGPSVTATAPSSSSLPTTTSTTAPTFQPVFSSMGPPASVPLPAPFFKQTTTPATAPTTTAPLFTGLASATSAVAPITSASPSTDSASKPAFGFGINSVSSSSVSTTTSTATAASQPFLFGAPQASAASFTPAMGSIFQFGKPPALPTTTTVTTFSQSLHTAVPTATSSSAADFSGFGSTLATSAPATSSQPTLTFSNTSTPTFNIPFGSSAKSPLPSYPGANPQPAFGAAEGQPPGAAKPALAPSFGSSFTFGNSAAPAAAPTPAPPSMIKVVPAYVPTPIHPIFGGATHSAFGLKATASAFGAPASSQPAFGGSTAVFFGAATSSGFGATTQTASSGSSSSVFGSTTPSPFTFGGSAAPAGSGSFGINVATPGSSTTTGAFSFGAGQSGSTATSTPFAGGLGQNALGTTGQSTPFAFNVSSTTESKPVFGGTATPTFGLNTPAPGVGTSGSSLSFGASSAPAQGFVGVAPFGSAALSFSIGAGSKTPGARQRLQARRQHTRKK

Compound: C1=CC2=NC=CN=C2C=C1/C=C/3\C(=O)NC(=O)S3
Experiment: log2 fold change, soluble protein after heating vs DMSO (PISA); higher = thermal stabilisation; K562 lysate, 10 uM; active = over 0.2 and 3.5 SD of the protein, either way, in both replicates (recomputed)
In short: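 Dounce homogenisation of K562 pellets in PBS pH 7.4 with 1 mM MgCl2 produced a crude extract, used at 1 mg/mL protein. Exposure to 10 μM compound lasted 30 min, and aliquots were then heated for 3 min across 48°C-58°C, pooled and brought to 0.5% NP-40 at 4°C. The supernatant after 21,000xg for 90 min was quantified by TMTpro 16plex LC-MS/MS with channel sums equalised. Duplicate values are given as log-two fold change in thermal stability relative to solvent controls.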

log2 fold change, inactive:
PLEKHM2 (UniProt Q8IWE5) -0.013
PPAN isoform 3 (UniProt Q9NQ55) -0.009
POTEF (UniProt A5A3E0) 0.019
POLE3 (UniProt Q9NRF9) -0.031
PLGRKT (UniProt Q9HBL7) 0.026
POGLUT3 (UniProt Q7Z4H8) -0.009
POMGNT1 isoform 2 (UniProt Q8WZA1) -0.119
PMPCB (UniProt O75439) 0.029
POLR3K (UniProt Q9Y2Y1) 0.042
PNN (UniProt Q9H307) -0.013
POU2F1 isoform 6 (UniProt P14859) 0
PMM1 (UniProt Q92871) -0.217
PMPCA (UniProt Q10713) -0.006
POLR3C (UniProt Q9BUI4) -0.011
PNPLA8 (UniProt Q9NP80) 0.022
PLXNA3 (UniProt P51805) 0.068
POLD3 (UniProt Q15054) -0.048
PPID (UniProt Q08752) -0.012
PNISR (UniProt Q8TF01) -0.017
POP1 (UniProt Q99575) -0.011
POLR3F (UniProt Q9H1D9) 0.032
PMS2 (UniProt P54278) -0.015
POLR2H (UniProt P52434) 0.034
PPIA (UniProt P62937) -0.022
POLR3B (UniProt Q9NW08) -0.02
POGLUT1 (UniProt Q8NBL1) -0.023
POMP (UniProt Q9Y244) -0.003
PLOD1 (UniProt Q02809) 0.01
POLE4 (UniProt Q9NR33) -0.014
POLR2A, A0A590UJN4 -0.03
PPFIA2 (UniProt O75334) 0.065
POLR1D (UniProt P0DPB6) -0.08
PNPT1 (UniProt Q8TCS8) 0
PODXL2 (UniProt Q9NZ53) -0.062
POLR3D (UniProt P05423) 0
POM121 (UniProt Q96HA1) -0.008
PMF1 (UniProt Q6P1K2) -0.017
PPCS (UniProt Q9HAB8) 0.021
POLR1A (UniProt O95602) -0.084

As a short view, part of the list above.
log2 fold change, inactive:
POM121 (UniProt Q96HA1) -0.008
PMF1 (UniProt Q6P1K2) -0.017
